Residue numbers refer to the chain shown, from its start. These are yes or no findings as the source states them, for the method shown. For some assays here: In cells and extracts the contact can be indirect. Some binding calls cover weakened binding; strength is not graded here. For some assays here: Tags and fused reporters may be left off the sequences shown.
What was measured:
[1] = target: T1, recombinant PKMYT1 (75-362) C301A (human) (UniProt Q99640); experiment: MST; labelled PKMYT1 (75-362) protein preincubated with Mei (50 µM) for 30 min, then 40 nM in assay buffer with 0.05% Tween-20; TRIM25 in 2-fold dilution series; Monolith NT.115; n = 3; both purified
T1 sequence (chain, labelled with RED-NHS 2nd Generation dye for MST): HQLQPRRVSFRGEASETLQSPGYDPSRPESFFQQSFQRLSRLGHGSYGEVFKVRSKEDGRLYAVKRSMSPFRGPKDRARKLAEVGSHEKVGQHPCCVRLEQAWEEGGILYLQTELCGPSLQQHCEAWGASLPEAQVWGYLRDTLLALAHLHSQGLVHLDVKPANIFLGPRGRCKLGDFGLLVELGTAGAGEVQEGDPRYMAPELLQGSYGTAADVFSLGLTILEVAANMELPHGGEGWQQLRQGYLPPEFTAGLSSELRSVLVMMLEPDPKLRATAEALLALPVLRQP

By UniProt entry, the sequences of proteins in these tests, tags left out.
UniProt Q14258: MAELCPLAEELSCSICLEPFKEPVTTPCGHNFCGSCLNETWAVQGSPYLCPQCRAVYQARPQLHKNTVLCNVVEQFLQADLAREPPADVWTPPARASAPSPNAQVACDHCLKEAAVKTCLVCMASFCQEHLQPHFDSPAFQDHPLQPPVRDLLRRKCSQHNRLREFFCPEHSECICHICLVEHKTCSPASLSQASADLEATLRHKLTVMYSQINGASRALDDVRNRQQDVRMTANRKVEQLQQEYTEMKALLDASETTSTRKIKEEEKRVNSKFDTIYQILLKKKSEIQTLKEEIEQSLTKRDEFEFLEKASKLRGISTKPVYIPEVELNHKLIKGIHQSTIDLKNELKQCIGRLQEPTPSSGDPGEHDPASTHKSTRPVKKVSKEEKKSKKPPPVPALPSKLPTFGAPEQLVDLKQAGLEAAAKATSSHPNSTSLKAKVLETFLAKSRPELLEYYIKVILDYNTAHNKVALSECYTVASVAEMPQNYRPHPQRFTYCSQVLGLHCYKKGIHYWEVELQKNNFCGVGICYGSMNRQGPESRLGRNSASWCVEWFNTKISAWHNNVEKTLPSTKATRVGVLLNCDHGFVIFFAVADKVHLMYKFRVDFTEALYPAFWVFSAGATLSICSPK

[2] = target: T1, recombinant PKMYT1 (75-362) C301A (human); experiment: MST; PKMYT1 (75-362) protein labelled with RED-NHS 2nd Generation, 40 nM, assay buffer with 0.05% Tween-20; TRIM25 in 2-fold dilution series; Monolith NT.115; without Mei; n = 3; both purified
Flag-PKMYT1 (human) = target: T2, Flag-PKMYT1 (human) (UniProt Q99640); experiment: co-IP; HEK293T cells transfected for 24 h, treated with Mei (10 µM) or DMSO for 3 h; lysate on DYKDDDDK-Nanoab-Agarose (anti-Flag) at 4 °C for 3 h, washed 5 times with PBS, immunoblot
T2 sequence: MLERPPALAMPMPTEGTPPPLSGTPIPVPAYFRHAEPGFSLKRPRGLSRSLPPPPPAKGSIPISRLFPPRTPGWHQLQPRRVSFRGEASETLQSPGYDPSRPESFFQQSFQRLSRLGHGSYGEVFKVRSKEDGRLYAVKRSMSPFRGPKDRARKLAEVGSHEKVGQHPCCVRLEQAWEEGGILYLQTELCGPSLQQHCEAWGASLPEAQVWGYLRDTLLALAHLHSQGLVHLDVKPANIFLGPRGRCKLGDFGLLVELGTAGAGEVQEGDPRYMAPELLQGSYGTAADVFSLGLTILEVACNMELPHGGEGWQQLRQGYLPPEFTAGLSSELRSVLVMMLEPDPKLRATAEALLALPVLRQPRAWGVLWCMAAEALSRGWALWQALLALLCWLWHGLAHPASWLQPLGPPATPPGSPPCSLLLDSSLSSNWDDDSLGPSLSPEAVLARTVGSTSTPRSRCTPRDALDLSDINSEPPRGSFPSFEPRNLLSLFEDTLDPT

[3] = target: T3, Flag-PKMYT1 (C301A) (human) (UniProt Q99640); experiment: as above
T3 sequence: T2 sequence with C301A

Row | binding [1] | binding [2] | binding (Flag-PKMYT1 (human)) | binding [3] | Substance
1 | binds | binds |  |  | TRIM25 protein (Origene, TP303757) (from UniProt Q14258 1-630) (enzyme)
2 |  |  | binds |  | Myc-TRIM25 (from UniProt Q14258 1-630) (enzyme)
3 |  |  | binds | binds | TRIM25 (in HEK293T cells overexpressing only Flag-PKMYT1) (from UniProt Q14258 1-630) (enzyme)
